Experiment [1] addresses MSMEG_5634-His6 (M. smegmatis) (UniProt A0R3Y0). Put plainly: pull-down.
For another experiment, the target named is His6-tagged KasA (UniProt A0R0B4). Put plainly: pull-down; […]; 50 mM Tris, 150 mM NaCl, pH 7.0; […].
The target of experiment [2] is His6-tagged MSMEG_5635 (M. smegmatis) (UniProt A0R3Y1). The experiment is described as above.
For a further experiment, the target named is His6-tagged Pks13 (UniProt A0R617). The description is as above.
The target in another experiment is T1, Flag-Rv2801a (UniProt P0CL61).
T1 sequence: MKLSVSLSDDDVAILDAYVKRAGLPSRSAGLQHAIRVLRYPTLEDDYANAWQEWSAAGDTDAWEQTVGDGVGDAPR
Described as above.

Sequences of proteins named here, by UniProt entry; tags and fusion partners are left off.
UniProt A0R0B4: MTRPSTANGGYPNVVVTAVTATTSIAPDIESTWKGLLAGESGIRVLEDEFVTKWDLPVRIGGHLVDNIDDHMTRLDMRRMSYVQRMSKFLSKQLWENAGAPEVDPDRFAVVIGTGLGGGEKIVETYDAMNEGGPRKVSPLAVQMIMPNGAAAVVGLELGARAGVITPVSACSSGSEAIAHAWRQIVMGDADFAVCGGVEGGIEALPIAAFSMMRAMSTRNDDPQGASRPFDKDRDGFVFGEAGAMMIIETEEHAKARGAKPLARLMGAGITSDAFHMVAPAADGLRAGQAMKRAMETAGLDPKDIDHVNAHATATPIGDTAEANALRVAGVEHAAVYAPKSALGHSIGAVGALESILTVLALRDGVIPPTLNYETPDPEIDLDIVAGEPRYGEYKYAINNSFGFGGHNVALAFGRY
UniProt A0R617: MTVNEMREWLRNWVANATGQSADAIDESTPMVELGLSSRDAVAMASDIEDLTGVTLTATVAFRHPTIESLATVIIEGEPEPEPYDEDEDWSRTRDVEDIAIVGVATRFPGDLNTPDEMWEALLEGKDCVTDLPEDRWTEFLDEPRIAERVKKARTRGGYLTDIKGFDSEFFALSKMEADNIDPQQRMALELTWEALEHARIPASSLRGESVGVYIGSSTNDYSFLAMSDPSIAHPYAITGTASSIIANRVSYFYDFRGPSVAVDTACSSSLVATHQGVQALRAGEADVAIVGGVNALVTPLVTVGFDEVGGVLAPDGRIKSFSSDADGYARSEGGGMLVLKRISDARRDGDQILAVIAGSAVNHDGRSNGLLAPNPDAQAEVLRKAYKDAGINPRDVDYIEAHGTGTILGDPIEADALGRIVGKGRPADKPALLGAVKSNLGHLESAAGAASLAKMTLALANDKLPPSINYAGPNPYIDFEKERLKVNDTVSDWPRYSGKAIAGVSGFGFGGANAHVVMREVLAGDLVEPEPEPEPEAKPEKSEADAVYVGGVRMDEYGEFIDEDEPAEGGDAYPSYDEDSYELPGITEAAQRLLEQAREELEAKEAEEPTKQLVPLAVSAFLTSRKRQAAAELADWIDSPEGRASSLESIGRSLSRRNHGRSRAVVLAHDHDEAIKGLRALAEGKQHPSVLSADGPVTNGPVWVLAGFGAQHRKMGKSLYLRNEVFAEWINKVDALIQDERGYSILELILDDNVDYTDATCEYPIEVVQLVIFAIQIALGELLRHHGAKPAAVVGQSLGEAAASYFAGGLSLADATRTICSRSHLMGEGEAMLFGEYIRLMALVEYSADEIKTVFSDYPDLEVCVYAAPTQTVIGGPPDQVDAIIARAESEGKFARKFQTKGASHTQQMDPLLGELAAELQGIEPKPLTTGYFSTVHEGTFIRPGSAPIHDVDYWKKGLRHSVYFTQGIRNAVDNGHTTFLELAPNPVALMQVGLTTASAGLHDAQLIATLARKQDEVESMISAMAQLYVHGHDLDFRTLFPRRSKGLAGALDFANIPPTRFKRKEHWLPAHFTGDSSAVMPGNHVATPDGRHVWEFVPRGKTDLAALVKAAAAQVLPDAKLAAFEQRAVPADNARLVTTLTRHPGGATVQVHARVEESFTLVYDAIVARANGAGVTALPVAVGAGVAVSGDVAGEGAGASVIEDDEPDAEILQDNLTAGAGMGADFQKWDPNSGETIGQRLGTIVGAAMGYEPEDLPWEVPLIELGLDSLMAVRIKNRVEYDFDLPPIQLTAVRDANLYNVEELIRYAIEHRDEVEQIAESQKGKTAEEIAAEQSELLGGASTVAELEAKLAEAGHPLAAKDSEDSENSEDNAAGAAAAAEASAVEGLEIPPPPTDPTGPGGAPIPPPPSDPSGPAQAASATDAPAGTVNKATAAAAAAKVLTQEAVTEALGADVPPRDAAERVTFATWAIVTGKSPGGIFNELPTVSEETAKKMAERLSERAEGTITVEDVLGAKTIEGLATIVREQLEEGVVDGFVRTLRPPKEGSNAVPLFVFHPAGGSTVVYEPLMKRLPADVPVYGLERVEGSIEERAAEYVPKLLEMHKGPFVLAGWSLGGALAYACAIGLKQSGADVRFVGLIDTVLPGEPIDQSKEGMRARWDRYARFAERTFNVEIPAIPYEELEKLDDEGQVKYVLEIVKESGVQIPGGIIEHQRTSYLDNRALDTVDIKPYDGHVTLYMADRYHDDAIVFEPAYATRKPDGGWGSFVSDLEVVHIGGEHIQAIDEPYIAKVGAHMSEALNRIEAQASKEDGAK

The results in this text go back to PMC9014085.

No constants are given. Whether binding was seen depends on the method and setting. In cells and extracts the contact can be indirect. Some binding calls cover weakened binding; strength is not graded here. For some assays here: Where a sequence is shown, tags or fusion partners need not be part of it.

Consider “AcpM (S41A)-Flag (from UniProt A0R0B3 1-99)”, for which, in experiment [1], the binding result is listed as “no binding”. “Flag-tagged MSMEG_5634 (W30A) (from UniProt A0R3Y0 1-147)”: in the experiment with His6-tagged KasA, the binding entry is on record as “binds”. For “Flag-tagged MSMEG_5634 (from UniProt A0R3Y0 1-147)”, the binding result is “no binding” in experiment [2] and “binds” in the experiment with His6-tagged Pks13.

B1: Rv2801c with a C-terminal His6 tag (protein, UniProt P71650 1-118)
chain: MMRRGEIWQVDLDPARGSEANNQRPAVVVSNDRANATATRLGRGVITVVPVTSNIAKVYPFQVLLSATTTGLQVDCKAQAEQIRSIATERLLRPIGRVSAAELAQLDEALKLHLDLWS
Consider B1, for which the binding entry with Flag-Rv2801a is “binds”.
